Source: patent publication US4532255A, “Amidine compounds and anticomplement agent comprising same” (Torii & Co., Ltd., priority 1980, dated 1985)
At least one compound was matched to its structure with a doubt left.

System: Kallikrein
Assay: Anti-kallikrein activity (hydrolysis of TAME)
Type: biochemical
Conditions: molar concentration inhibiting 50% of TAME hydrolysis; read-out: Kallikrein ID50
Experimental: The anti-trypsin, anti-plasmin, anti-kallikrein and anti-thrombin activities were determined according to the method of Muramatsu et al. [M. Muramatsu, T. Onishi, S. Makino, Y. Hayashi and S. Fujii, J. of Biochem., 58, 214 (1965)]. The data summarized in Table 1 are expressed in terms of molar concentration (ID50) of the test compound which inhibits 50% of the activity of each enzyme to hydrolyze TAME (tosylalginine methyl ester). The compound No. corresponds to the compound number shown in Examples.

N=C(N)c1ccc2cc(OC(=O)CCc3ccc(N)cc3)ccc2c1 [Compound 51, 6-amidino-2-naphthyl 4-aminophenylpropionate]
IC50: > 10 µM
